Measurements from US20190023771A1.
No constants are given. Whether binding was seen depends on the method and setting. Some results given as binding are weak or reduced against the parent protein; the word gives no strength.

Protein sequences, listed by entry. Tags and fused reporters are not part of them. Residues count along the entry.
UniProt P60880, residues 1-180: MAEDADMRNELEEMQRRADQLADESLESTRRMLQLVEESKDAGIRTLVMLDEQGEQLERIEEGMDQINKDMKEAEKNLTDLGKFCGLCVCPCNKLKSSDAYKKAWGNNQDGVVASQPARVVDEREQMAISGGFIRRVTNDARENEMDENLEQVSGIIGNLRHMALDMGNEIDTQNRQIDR

Target: BoNT/E-cleaved SNAP-25 (UniProt P60880)
Experiment: ELISA and Western blots

B1: mouse monoclonal antibody produced by hybridoma pCNEI 32-7-1, 3614-000 (antibody, V domains shown)
VH: EVQLVESGGGLVQPKGSLKLSCAASGYTFNTYAVNWVRQAPGKGLEWVARIRSKSYNYVTYYADSVKDRFTISRDDSQSMLYLQMNNLKTEDTAMYYCVKGNGNYVSFAYWGQGTLVTVSA
VL: QLVLTQSSSASFSLGASAKLTCTLSSQHNTYTIEWYQQQPLKPPKYVMELKKDGSHSTGDGIPDRFSGSSSGADRYLSISNIQPEDEAIYICGVGDTIKEQFVYVFGGGTKVTVL
With B1 as the binder, how does the binding read?
Its binding is “binds”.
